Laboratory results as given in patent US20250064057A1, “HARMFUL ALGAL BLOOM MITIGATION” (priority 2023, published 2025).
For at least one compound, name, drawing or mass did not settle the structure.

What was measured:
[1] = test system: K. brevis toxins (sum of BTX-1, BTX-2, BTX-3, BTX-B5); type: cell-based, Karenia brevis
[2] = test system: diarrheal shellfish toxins from an epibenthic dinoflagellate (Prorocentrum lima); settings: 80 mmol/L curcumin mixture; Yuan et al.; cited from earlier work

For `COc1cc(/C=C/C(=O)CC(=O)/C=C/c2ccc(O)c(OC)c2)ccc1O` [curcumin, (1E,6E)-1,7-Bis (4 (hydroxy-3-methoxyphenyl)-1,6-heptadiene-3,5-dione)], the “conversion of parent toxins (BTX-1, BTX-2) to analog forms over time” value [1] is given as “not typically converted to analog forms”, the “total brevetoxins (in seawater) reduction” value [1] is given as “significantly reduced” and the “accumulation of diarrheal shellfish toxins” value [2] is given as “inhibits accumulation of diarrheal shellfish toxins”.
